PubChem BioAssay AID504793 | Drosophila RNAi Screening Center, 2011

- Test: 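Knock-downs allowing continued mitosis even though DNA is damaged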 (primary screen)
- Cell system: Drosophila S2R+ cells
- Reagents: long dsRNA against Drosophila genes, about 0.25 µg dsRNA per well
- Time to read-out: 4 days of dsRNA, then 4 hours of drug before read-out
- Challenge: doxorubicin 0.5 µM for 4 hours to cause double-strand breaks, in cells also given a low, harmless dose of dsRNA against nbs to sensitise the assay
- Measured: 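Mitotic index as the number of phospho-histone H3-positive cells in each well following doxorubicin, given as raw counts without normalisation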
- Scale: mitotic cells: higher = more cells in mitosis, weaker G2 arrest
- Hit rule: 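Genes are called active only when high mitotic counts were reproduced with independent dsRNAs and mitosis was checked for delay without damage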
- Meaning of the calls: active = confirmed in follow-up tests; inactive = not confirmed
The deposit covers about 23,000 reagents; below is a random part of those that have a named target and a result. In the full data, 62 (0.27%) were called active. 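Calls come from follow-up tests whose scores are not deposited, so confirmed genes may have low counts here; counts are not normalised per plate.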 The raw values are shown without normalisation. Names joined by + are all predicted targets of the reagent.

What did the screen give for Pex5 [DRSC18552]?
mitotic cells, replicate 1: 13; activity call: inactive

With Pex5 [DRSC26136], how do the results read?
mitotic cells, replicate 1: 4; activity call: inactive

Which result is listed for CG17211 [DRSC02587]?
mitotic cells, replicate 1: 7; activity call: inactive

Which result is listed for Pgant6 [DRSC08552]?
mitotic cells, replicate 1: 4; activity call: inactive

What is on record for Pgant6 [DRSC26927]?
mitotic cells, replicate 1: 5; activity call: inactive

With CG6294 + CG6299 [DRSC19980], what does the deposit list?
mitotic cells, replicate 1: 5; activity call: inactive

For CG6294 + CG6299 [DRSC27443], how do the results read?
mitotic cells, replicate 1: 4; activity call: inactive

With CG5961 [DRSC15927], how do the results read?
mitotic cells, replicate 1: 8; activity call: inactive

What is on record for CG5961 [DRSC27152]?
mitotic cells, replicate 1: 7; activity call: inactive

How did the screen score Cyp6a20 [DRSC07380]?
mitotic cells, replicate 1: 7; activity call: inactive

For Cpr60D [DRSC04492], what was measured?
mitotic cells, replicate 1: 9; activity call: inactive

With CG4364 [DRSC02742], what was measured?
mitotic cells, replicate 1: 5; activity call: inactive

What did the screen give for CG4364 [DRSC29531]?
mitotic cells, replicate 1: 1; activity call: inactive

For t-Grip91 [DRSC01506], what does the deposit list?
mitotic cells, replicate 1: 11; activity call: inactive

What did the screen give for Bem46 [DRSC00275]?
mitotic cells, replicate 1: 3; activity call: inactive

What is on record for CG5815 [DRSC14135]?
mitotic cells, replicate 1: 8; activity call: inactive

With CG5815 [DRSC27943], what was measured?
mitotic cells, replicate 1: 8; activity call: inactive

With CG17597 [DRSC02630], what was measured?
mitotic cells, replicate 1: 3; activity call: inactive

Which result is listed for CG17597 [DRSC24788]?
mitotic cells, replicate 1: 10; activity call: inactive

For CG4452 [DRSC10422], what does the deposit list?
mitotic cells, replicate 1: 6; activity call: inactive

What is on record for edin [DRSC09488]?
mitotic cells, replicate 1: 34; activity call: inactive

For SMC3 [DRSC20227], what was measured?
mitotic cells, replicate 1: 9; activity call: inactive

What is on record for CG3860 [DRSC04425]?
mitotic cells, replicate 1: 7; activity call: inactive

What did the screen give for CG17168 [DRSC20904]?
mitotic cells, replicate 1: 5; activity call: inactive

For CG17168 [DRSC29872], what was measured?
mitotic cells, replicate 1: 5; activity call: inactive

Which result is listed for cGlr1 [DRSC06270]?
mitotic cells, replicate 1: 3; activity call: inactive

For CG9406 [DRSC04552], how do the results read?
mitotic cells, replicate 1: 12; activity call: inactive

How did the screen score CG5070 [DRSC19932]?
mitotic cells, replicate 1: 5; activity call: inactive

For CG5070 [DRSC28082], how do the results read?
mitotic cells, replicate 1: 6; activity call: inactive

For Pex6 + Hao [DRSC06097], what was measured?
mitotic cells, replicate 1: 2; activity call: inactive

For Pex6 + Hao [DRSC06704], how do the results read?
mitotic cells, replicate 1: 9; activity call: inactive

How did the screen score tj [DRSC02011]?
mitotic cells, replicate 1: 4; activity call: inactive

For tj [DRSC28417], what was measured?
mitotic cells, replicate 1: 12; activity call: inactive

Which result is listed for Vago [DRSC19833]?
mitotic cells, replicate 1: 8; activity call: inactive

For Vago [DRSC26320], how do the results read?
mitotic cells, replicate 1: 9; activity call: inactive

Taken from above.
CG17211 [DRSC02587], mitotic cells, replicate 1: 7
Entry of CG4364 [DRSC29531] under “activity call”: inactive
Value of CG17168 [DRSC20904] under “mitotic cells, replicate 1”: 5
CG5070 [DRSC19932], mitotic cells, replicate 1: 5
Under “mitotic cells, replicate 1”, CG3860 [DRSC04425] reads 7
